# The list shows a part of the results. Further columns of the screen follow, without active or inactive calls. Most of these compounds were active or inconclusive in the main read-out, so they are no random draw. Words in brackets tell the shape of the fitted curve; partial curves, single points and poor fits give uncertain potencies.
# Experiment: qHTS Assay to Find Inhibitors of Chronic Active B-Cell Receptor Signaling
# Details: ABC-DLBCL IkBa-CBG/CBR reporter, luminescence ratio (green luciferase fused to IkBa over red control in TMD8 lymphoma cells), 4 h
# Outline: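 TMD8 human ABC-DLBCL cells with doxycycline-inducible IκBα–green luciferase fusion and unfused red luciferase, in 0.5% FBS medium; compounds up to 46 uM, 4 h at 37C. Green/red luminescence ratio, filter-overlap corrected, fitted to concentration-response curves.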
# [1] = measured here: CBR red luminescence, cell number
# [2] = measured here: IkBa-CBG green luminescence
SMILES,AC50 [1],AC50 [2]
Cc1ccccc1Cn1nnc(-c2ccc(C(=O)O)cc2)n1,"28.2 µM [falling, single point]",–
COc1ccc(CNC(=O)C(c2ccco2)N(C(=O)c2ccccn2)c2ccccc2)cc1 (centres undefined),"8.91 µM [falling, partial curve, poor fit]",–
CC(C)C(NC(=O)c1ccc(C(C)(C)C)cc1)C(=O)NC1=NCCS1 (centres undefined),"29.1 µM [falling, single point]",–
COc1cc(COc2ccc(-c3nnco3)cc2)ccc1OC(F)F,"5.62 µM [rising, partial curve]",–
Oc1c(Cl)cc(CN2CCCCC2)c2cccnc12,"7.08 µM [rising, full curve, poor fit]","15.8 µM [falling, single point]"
COc1cccc(/C=N/NC(=O)c2cnccn2)c1,"16.4 µM [falling, partial curve, poor fit]",–
CCOc1ccc(N(C)S(=O)(=O)c2ccc(C)c(C(=O)N3CCN(Cc4ccc5c(c4)OCO5)CC3)c2)cc1,"29.1 µM [falling, single point]",–
CCN(CC)CCCn1c(=S)[nH]c2cc(OC)c(OC)cc2c1=O,"29.1 µM [falling, single point]",–
CN1C(=O)c2oc3ccccc3c(=O)c2C1c1ccccn1 (centres undefined),"25.9 µM [falling, single point]",–
S=c1[nH]nc(-c2ccc(Br)o2)n1Cc1ccccc1,"29.1 µM [rising, single point]",–
Cc1ccccc1Nc1nc(N)nc(COC(=O)c2c(C)noc2C)n1,"25.9 µM [rising, single point]",–
CCCCN(CC)CCCNC(=O)c1cc2c(=O)n(CC)c3ccccc3c2s1,"1.41 µM [falling, single point]",–
CC1CN(c2ncnc3c2oc2ccccc23)CC(C)O1 (centres undefined),"6.31 µM [rising, full curve, poor fit]",–
CCOC(=O)C(=CNc1ccc(Oc2cccnc2)nc1)C(=O)OCC,"0.562 µM [falling, partial curve, poor fit]",–
O=C(CSc1nnc(-c2cccs2)o1)N1CCOCC1,"6.51 µM [rising, single point]",–
OCC1(Cc2ccccc2)CCCN(Cc2ccc3c(c2)OCCO3)C1 (centres undefined),"14.1 µM [falling, partial curve, poor fit]",–
O=C(CSc1nnc2ccccn12)Nc1ccccc1C(=O)O,"10 µM [falling, partial curve, poor fit]",–
O=C(/C=C/c1ccccc1Cl)NNC(=O)c1ccncc1,"20.6 µM [falling, single point]",–
CCSC1=N/C(=C\c2cccc(F)c2)C(=O)S1,"25.9 µM [rising, single point]",–
Fc1ccc(C2c3[nH]c4ccccc4c3CCN2Cc2ccoc2)cc1 (centres undefined),"35.5 µM [falling, single point]","20 µM [rising, partial curve, poor fit]"
Cc1cccc(CN2CCN(CC(C)C)C(CCO)C2)n1 (centres undefined),"12.6 µM [rising, single point]",–

# Single entries from the list:
# AC50 [1], OCC1(Cc2ccccc2)CCCN(Cc2ccc3c(c2)OCCO3)C1 (centres undefined) is entered as 14.1 µM [falling, partial curve, poor fit]
# AC50 [1], COc1ccc(CNC(=O)C(c2ccco2)N(C(=O)c2ccccn2)c2ccccc2)cc1 (centres undefined) is entered as 8.91 µM [falling, partial curve, poor fit]

# Continuation.

SMILES,AC50 [1],AC50 [2]
CC(c1ccccc1)N1C(=O)c2ccc(C(=O)NCc3ccco3)cc2C1=O (centres undefined),"4.61 µM [rising, full curve]",–
Cc1ccnc(NC(=O)c2ccc3c(c2)OCO3)c1,"12.6 µM [falling, partial curve, poor fit]",–
CS(=O)(=O)Nc1cccc(-c2cnc3ccccc3n2)c1,"3.16 µM [rising, single point]",–
CCCCN1C(=O)C(O)(CC(=O)c2ccco2)c2cc(Br)ccc21 (centres undefined),–,"25.9 µM [falling, single point]"
COc1ccc(OC)c(S(=O)(=O)N2CCC(C(=O)NCc3ccccc3OC)CC2)c1,"29.1 µM [rising, single point]",–
O=C(Cn1cnc2cc([N+](=O)[O-])ccc2c1=O)NC1CCS(=O)(=O)C1 (centres undefined),"11.2 µM [falling, partial curve, poor fit]",–
Cc1cc(S(=O)(=O)N2CCN(c3ccccc3O)CC2)c(C)s1,"29.1 µM [falling, partial curve, poor fit]",–
CCCS(=O)(=O)N1CCCC(C(=O)NCCc2ccc(OC)c(OC)c2)C1 (centres undefined),"29.1 µM [rising, single point]",–
COc1ccc(C(=O)OCc2ccc(C)cc2)cc1S(=O)(=O)N1CCOCC1,–,"16.4 µM [falling, partial curve, poor fit]"
Cc1ccc(-n2ncc3c(N4CCCC4)ncnc32)c(C)c1,"1 µM [falling, full curve, poor fit]",–
COc1ccc([N+](=O)[O-])cc1NC(=O)CC(C)c1ccccc1 (centres undefined),"6.31 µM [rising, full curve]",–
Cc1cc(=O)n2[nH]c(C)c(-c3ccc(Cl)cc3)c2n1,"6.51 µM [falling, single point]","6.51 µM [rising, partial curve, poor fit]"
COc1cccc(/C=C2\SC(=S)N(CCC(=O)NNC(=O)c3ccccc3OC)C2=O)c1,"12.6 µM [falling, partial curve, poor fit]",–
O=S(=O)(N1CCCCC1)N1CCN(CC(O)COc2ccc3cc(Br)ccc3c2)CC1 (centres undefined),"29.1 µM [falling, single point]",–
COc1ccc(N(C(=O)c2ccccc2C)S(=O)(=O)c2cccs2)cc1,"8.2 µM [rising, partial curve]","7.31 µM [falling, partial curve]"
COc1ccccc1NC(C)C(=O)Nc1ccc(C(C)=O)cc1 (centres undefined),"23.1 µM [rising, single point]",–
Cc1ccc(C)c(S(=O)(=O)NCC(c2ccco2)N2CCc3ccccc3C2)c1 (centres undefined),"16.4 µM [falling, single point]",–
CC(=O)c1cccc(NC(=O)Nc2ccc3c(c2)CCC3)c1,"2.82 µM [rising, partial curve, poor fit]",–
CCOc1cc(CNCCCN2CCOCC2)cc(Br)c1OCc1ccccc1Cl,"35.5 µM [falling, single point]","3.98 µM [rising, full curve, poor fit]"
COc1cc(/C=N/Nc2nn3cnnc3c3ccccc23)ccc1O,"4.47 µM [falling, full curve, poor fit]",–
O=C1C=C(c2ccc(F)cc2OCc2ccccc2)C[C@@H](c2ccc(Cl)cc2)C1,"7.31 µM [rising, partial curve, poor fit]",–

# 3 records picked at random from the list so far:
SMILES,AC50 [1],AC50 [2]
COc1ccc(OC)c(S(=O)(=O)N2CCC(C(=O)NCc3ccccc3OC)CC2)c1,"29.1 µM [rising, single point]",–
Cc1ccc(C)c(S(=O)(=O)NCC(c2ccco2)N2CCc3ccccc3C2)c1 (centres undefined),"16.4 µM [falling, single point]",–
COc1ccc(N(C(=O)c2ccccc2C)S(=O)(=O)c2cccs2)cc1,"8.2 µM [rising, partial curve]","7.31 µM [falling, partial curve]"

# Later entries:

SMILES,AC50 [1],AC50 [2]
CCOC(=O)C1CCN(C(=O)COc2ccc(Cl)cc2Cl)CC1,"35.5 µM [falling, single point]",–
CC(=O)Oc1ccc(OC(C)=O)c(SCCCCCN2CCOCC2)c1,"35.5 µM [falling, single point]",–
Cc1c(NC(=O)c2ncn[nH]2)cccc1-c1nc2ccccc2s1,"8.2 µM [falling, partial curve]",–
COc1cc2[nH]c(C(=O)NCc3ccccc3)cc2c(OC)c1OC,"0.891 µM [rising, full curve, poor fit]",–
CCC(N=c1cc(-c2ccc(OC)c(OC)c2)oc2ccc(C)cc12)C(=O)O (centres undefined),"10.3 µM [rising, partial curve]",–
Cc1nn(-c2ccccc2)c2c1C(c1ccccc1)C(C#N)=C(N)O2 (centres undefined),"5.17 µM [rising, single point]",–
COC(=O)c1ccc(NC(=O)c2ccccc2)o1,"11.2 µM [falling, single point]",–
COc1ccc(CN(C#N)c2nc(SC)nc(N(C)C)n2)cc1,"5.01 µM [rising, single point]",–
Cc1[nH]nc(-c2ccc(O)cc2O)c1-c1nc2ccccc2s1,"2.82 µM [rising, full curve, poor fit]",–
Cc1sc2ncnc(NCc3ccccc3)c2c1C,"7.08 µM [rising, full curve, poor fit]",–
Cc1cc(=O)[nH]c2ccc(S(=O)(=O)Nc3ccc(O)cc3)cc12,–,"10 µM [falling, partial curve]"
O=C(CCNS(=O)(=O)c1ccccc1)N1CCOCC1,"5.62 µM [falling, single point]",–
CCOC(=O)CN(C(=O)c1snc(C(N)=O)c1N)C(C(=O)NC1CCCCC1)c1ccc(F)cc1 (centres undefined),"7.08 µM [rising, partial curve, poor fit]",–
COc1ccc(S(=O)(=O)Nc2ccc(-n3cccc3)cc2)cc1,"35.5 µM [falling, single point]",–
O=C(O)CCCCC1SCC2NC(=O)NC21 (centres undefined),"35.5 µM [rising, single point]",–
CCN1C(=O)c2ccccc2S(=O)c2ccc(C(=O)N3CCCCCC3)cc21 (centres undefined),"20.6 µM [falling, partial curve, poor fit]",–
CC(=O)Nc1ccc(S(=O)(=O)NCCC(=O)OCc2csc(CC(=O)Nc3ccccc3C)n2)cc1,"1.16 µM [rising, partial curve]",–
CCn1cc(CNC(=O)C2C3CCC(C3)C2C(=O)O)cn1 (centres undefined),"3.98 µM [falling, partial curve, poor fit]",–
Cc1cc(NC(=O)C(C)SCC(=O)N(C)CC(=O)Nc2ccc(Br)cc2C)no1 (centres undefined),"35.5 µM [falling, single point]",–
CCOC(=O)C1C(c2cc(OC)c(OC)c(OC)c2)NC(=S)NC1(O)C(F)(F)F (centres undefined),"5.62 µM [rising, single point]",–
COc1cc(/C(C)=N\NC(N)=S)cc(OC)c1OC,"20.6 µM [rising, partial curve, poor fit]","25.9 µM [falling, partial curve, poor fit]"
